This is an account of results in patent US20200362047A1.

Protein sequences, listed by entry. Tags and fused reporters are not part of them. Lines headed by an entry give the natural chain unless they say otherwise; changes in a name come on top.
UniProt Q07011: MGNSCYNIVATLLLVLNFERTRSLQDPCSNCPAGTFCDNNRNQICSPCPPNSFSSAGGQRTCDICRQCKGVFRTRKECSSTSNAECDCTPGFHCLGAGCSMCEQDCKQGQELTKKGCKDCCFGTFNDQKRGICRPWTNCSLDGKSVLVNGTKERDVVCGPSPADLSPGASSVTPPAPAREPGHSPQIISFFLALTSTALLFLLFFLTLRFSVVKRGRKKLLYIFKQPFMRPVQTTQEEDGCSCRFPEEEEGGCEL

No constants are given. Whether binding was seen depends on the method and setting. Some binding calls cover weakened binding; strength is not graded here.

The target in this assay is human CD137 expressed on the surface of CHO cells (human) (UniProt Q07011). The assay can be described thus: FMAT, CHO human CD137 cells.

B1: 4.1-6GS-1.1-6GS-VH (MSA) (bispecific antibody, not shown: small tags and cut ends)
chain: EVQLVESGGGVVQPGRSLRLSCAASGFSFSGYGMHWVRQAPGKGLEWVAYISYDGSNKYYADSVKGRFTISRDNSKNTLYLQMNSLRAEDTAVYYCAKDPAWGLRLGESSSYDFDIWGQGTMVTVSSGGGGSGGGGSGGGGSGGGGSGGGGSGGGGSEVQLVESGGGLVQPGGSLRLSCAASGFTFSSHWMTWFRQAPGKGLEWVAHIKEDGSEKYYEDSVEGRFTVSRDNAKNSVYLQMNSLRAEDTAVYYCARGGDGYSDSHFGVDVWGQGTTVTVSSGGGGSGGGGSGGGGSGGGGSGGGGSGGGGSQVQLVESGGGLVQPGGSLRLSCAASGFTFSSYAMSWVRQAPGKGLEWVATISDSGSSADYADSVKGRFTISRDNSKNTLYLQMNSLRAEDTAVYYCARGRYNWNPRALGIWGQGTMVTVSS
Consider B1, for which the binding entry was “binds”.
